Test results from PubChem BioAssay AID1296 (Columbia University Molecular Screening Center, 2008).
Among all 130,000 compounds or so, about 1,000 (0.77%) were called active. This list was built around the results that the source calls inconclusive (neither active nor inactive); the mix of calls is not that of the screen.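 Rule for the calls: active = activation at 2 µM above a set limit, confirmed on inspection of the cell images; inconclusive = above the set limit but not confirmed on image inspection; inactive = the rest.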

assay: activators of insulin promoter-driven GFP, primary screen, imaging, TRM-6 cells, eGFP reporter, cell count (AID 1296); conditions: at 2 µM, hits give high values, plate-scaled: unstimulated 0, stimulated control 100;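 note: share of cells whose green reporter signal exceeds an intensity cutoff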
In short: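 material = TRM-6 human fetal islet cells, insulin promoter–eGFP reporter | input = 1,000 TRM-6 cells seeded per well | benchmarks = stimulated versus unstimulated wells as plate controls | measured by = automated fluorescence imaging of paraformaldehyde-fixed, Hoechst-counterstained cells, green channel | schedule = compound exposure 48 h, 37 °C | reagent = tamoxifen at 0.75 µM added at seeding for reporter induction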

| SMILES | activation |
| --- | --- |
| Cc1ccc(/C=C/C(=O)NC2CCCCCCC2)o1 | inactive: 0% |
| CN1c2ccccc2C(C)(C)[C@]12C=Cc1cc(O)ccc1O2 | inconclusive: 125% |
| CCS(=O)(=O)N1N=C(c2cccc(NS(C)(=O)=O)c2)CC1c1ccc(C)cc1 (stereo not given) | inconclusive: 230% |
| COCCNC(=O)C(c1cccs1)N(C(=O)Cn1nnc2ccccc21)c1ccc(OC)cc1 (stereo not given) | inconclusive: 444% |
| COc1ccc(C(=O)NCc2ccccc2)cc1S(=O)(=O)N1CCCc2ccccc21 | inconclusive: 257% [cytotoxic] |
| COc1cccc(NC(=S)N(CCCN2CCOCC2)C(C)c2cc3cccc(OC)c3o2)c1 (stereo not given) | active: 259% |
| Oc1ccc(CNc2ccccc2O)cc1 | inconclusive: 96.7% |
| Cc1cc(C)c2nc(NNC(=O)c3ccc(S(=O)(=O)N4CCc5ccccc5C4)cc3)sc2c1 | inconclusive: 256% |
| CCc1c(C)nc2ncnn2c1Nc1ccc(C(C)=O)cc1 | inconclusive: 450% |
| Cc1ccc(OCC(O)Cn2c(=N)n(Cc3ccccc3)c3ccccc32)cc1 (stereo not given) | inconclusive: 80% |
| COc1ccc(S(=O)(=O)N2CCCC2C(=O)Nc2nc3c(s2)CCCC3)cc1 (stereo not given) | inconclusive: 90.3% |
| COc1cc2c3nnc(-c4ccc(F)cc4)c-3cn(Cc3cccc(F)c3)c2cc1OC | active: 809% |
| CCN1CCc2c(sc(NC(=O)Nc3ccc(Cl)c(Cl)c3)c2C(N)=O)C1 | active: 208% |
| COc1ccccc1OCC(=O)Nc1ccc(N2CCCCC2)cc1 | inactive: -9.09% |
| Cc1cccc(C(=O)Nc2ncc(CN3CCOCC3)s2)c1 | inconclusive: 414% |
| COc1ccc(C(=O)Nc2ccc(S(=O)(=O)N3CCc4ccccc43)cc2)cc1 | inconclusive: 494% |
| CCOc1ccc(N2C(=O)CS/C2=C(\C(Cl)=C(Cl)Cl)[N+](=O)[O-])cc1 | inconclusive: 83.9% |
| O=C(CCc1nc2ccccc2s1)NCc1ccccc1F | inconclusive: 382% |
| O=C(Cc1ccc(-n2cccc2)cc1)NCc1cccs1 | inconclusive: 186% [cytotoxic] |
| COc1ccccc1NC(=O)CSc1nncn1-c1cccnc1 | inconclusive: 486% |

| SMILES | activation |
| --- | --- |
| O=C(NCCc1ccccc1)c1oc2ccccc2c1COc1ccccc1 | active: 80% |
| Cc1ccc(NC(=S)N(CCN2CCOCC2)Cc2ccccc2F)cc1 | inconclusive: 167% |
| CCCNC(=S)Nc1ccc2nc(-c3ccccn3)c(-c3ccccn3)nc2c1 | inconclusive: 213% |
| CCc1ccc(C(C(=O)NCCOC)N(C(=O)Cn2nnc3ccccc32)c2cccnc2)cc1 (stereo not given) | active: 450% |
| CCn1nc(C)cc1Nc1ccccc1 | inconclusive: 421% |
| COc1cccc(Nc2nc(-c3sc(N)nc3C)cs2)c1 | inconclusive: 403% |
| Cc1cc(C)cc(NC(=O)CSc2ccccc2)c1 | active: 525% |
| CC1(c2ccc(Cl)cc2)NC(=O)N(CC(=O)NC(=O)NCc2ccco2)C1=O (stereo not given) | inactive: 0% |
| COC(=O)c1ccccc1NC(=O)CN(CCc1ccccc1)S(C)(=O)=O | inconclusive: 78.4% |
| NS(=O)(=O)c1ccc(CCNC(=O)CSc2nc3ccccc3c3nc(CCN4CCCCC4)nn23)cc1 | inconclusive: 457% |
| CN1C(=O)CC(C(=O)O)SC1=Nc1ccc(F)cc1 (stereo not given) | active: 425% |
| COc1ccc(S(=O)(=O)N2CCC(O)(c3cccnc3)CC2)cc1OC | inconclusive: 76.5% [cytotoxic] |
| Cc1ccc(C(=O)N/C(=C\c2cccs2)C(=O)NC2CCCCC2)cc1 | active: 400% |
| CCN1CCCC1CNCc1ccccc1OCc1ccc(F)cc1 (stereo not given) | active: 97.2% |
| Cc1ccc(OCCCC(=O)Nc2ccccc2C(F)(F)F)cc1 | inconclusive: 223% |
| CC(/C=N/NC(=O)c1cccs1)=C\c1ccco1 | inconclusive: 225% |
| c1ccc(-c2n[nH]nc2-c2ccccc2)cc1 | inconclusive: 304% |
| CCOc1nnnc2c1sc1nc(N3CCOCC3)c3c(c12)CC(C)(C)OC3 | inconclusive: 268% |
| CCOC(=O)Cc1nnc(NC(=O)c2ncn[nH]2)s1 | inconclusive: 520% |
| CC(C)(C=O)C1=CC(=O)c2ccccc2C1=O | inconclusive: 203% [cytotoxic] |

| SMILES | activation |
| --- | --- |
| Cc1cc2c(s1)CCCCC(=O)N2 | inactive: 0% |
| Cn1c(SCC(=O)C(C)(C)C)nnc1-c1ccncc1 | inactive: 0% |
| COc1cc2[nH]c(=S)nc(NCCC(C)C)c2cc1OC | inactive: -83.3% |
| CC1SC(c2ccc(Cl)cc2)NC1=O (stereo not given) | active: 444% |
| O=C(CSc1ncn[nH]1)NCCC(c1ccccc1)c1ccccc1 | active: 85.3% |
| CC(C)N(C(=O)C(F)(F)F)C(C(=O)NC1CCCCC1)c1ccncc1 (stereo not given) | inactive: 7.69% |
| O=C(OCC(=O)N1CCN(c2ccccc2)CC1)C1=COCCO1 | inconclusive: 223% |
| CC(C)(C)c1nc(C(C)(C)C)c(Br)c(=O)[nH]1 | inactive: -6.45% |
| Cc1ccc(N2C(=O)Nc3cc(Cl)c(Cl)cc3N2O)cc1Cl | inconclusive: 167% |
| O=c1cc(-c2ccccc2)[nH]c2cc(Cl)ccc12 | inconclusive: 257% [cytotoxic] |
| CC[n+]1c(/C=C/C=C/N(C(C)=O)c2ccccc2)sc2ccccc21 | active: 203% |
| C=CCC1C=C(Cc2ccccc2)CC(CC=C)N1 (stereo not given) | inconclusive: 254% |
| CCc1ccccc1NC(=O)CSc1nnc([C@H](CCSC)NC(=O)OC(C)(C)C)o1 | inconclusive: 617% |
| CCOC(=O)N1CCN(C(=O)c2cc(-c3ccc(OCC)cc3)nc3ccccc23)CC1 | inconclusive: 329% [cytotoxic] |
| C#CC(=O)N(c1ccc(OC)c(OC)c1)C(C(=O)NC1CCCC1)c1cccs1 (stereo not given) | inconclusive: 212% [cytotoxic] |
| Cc1cc(NC(=O)C23CCC(C)(c4nc5cc(Cl)c(Cl)cc5nc42)C3(C)C)no1 (stereo not given) | inconclusive: 412% |
| CCN(C(=O)c1cc(Cl)ccc1OC)c1ccccc1C | active: 543% |
| CNC(=O)c1nnsc1S(=O)(=O)c1ccc(Cl)cc1 | active: 754% |
| CCOC(=O)c1sc2nc(-c3cccnc3)ccc2c1N | inactive: -71.4% |
| O=C(CCOc1ccccc1F)N1CCN(c2ccccc2O)CC1 | inactive: 0% |

No new results follow: twelve of the compounds above.

| SMILES | activation |
| --- | --- |
| Cn1c(SCC(=O)C(C)(C)C)nnc1-c1ccncc1 | inactive: 0% |
| COc1cc2[nH]c(=S)nc(NCCC(C)C)c2cc1OC | inactive: -83.3% |
| CC1SC(c2ccc(Cl)cc2)NC1=O (stereo not given) | active: 444% |
| O=C(CSc1ncn[nH]1)NCCC(c1ccccc1)c1ccccc1 | active: 85.3% |
| CC(C)N(C(=O)C(F)(F)F)C(C(=O)NC1CCCCC1)c1ccncc1 (stereo not given) | inactive: 7.69% |
| O=C(OCC(=O)N1CCN(c2ccccc2)CC1)C1=COCCO1 | inconclusive: 223% |
| CC(C)(C)c1nc(C(C)(C)C)c(Br)c(=O)[nH]1 | inactive: -6.45% |
| Cc1ccc(N2C(=O)Nc3cc(Cl)c(Cl)cc3N2O)cc1Cl | inconclusive: 167% |
| O=c1cc(-c2ccccc2)[nH]c2cc(Cl)ccc12 | inconclusive: 257% [cytotoxic] |
| CC[n+]1c(/C=C/C=C/N(C(C)=O)c2ccccc2)sc2ccccc21 | active: 203% |
| C=CCC1C=C(Cc2ccccc2)CC(CC=C)N1 (stereo not given) | inconclusive: 254% |
| CCc1ccccc1NC(=O)CSc1nnc([C@H](CCSC)NC(=O)OC(C)(C)C)o1 | inconclusive: 617% |
